In the supplement of paper PMC10849652:
Some of the results follow.

Protein sequences, listed by entry. Tags and fused reporters are not part of them. Lines headed by an entry give the natural chain unless they say otherwise; changes in a name come on top.
UniProt Q9UKR5: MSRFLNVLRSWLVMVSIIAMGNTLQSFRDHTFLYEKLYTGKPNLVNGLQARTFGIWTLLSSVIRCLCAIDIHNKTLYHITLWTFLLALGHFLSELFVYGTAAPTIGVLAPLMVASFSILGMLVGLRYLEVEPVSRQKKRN
UniProt Q0VG06: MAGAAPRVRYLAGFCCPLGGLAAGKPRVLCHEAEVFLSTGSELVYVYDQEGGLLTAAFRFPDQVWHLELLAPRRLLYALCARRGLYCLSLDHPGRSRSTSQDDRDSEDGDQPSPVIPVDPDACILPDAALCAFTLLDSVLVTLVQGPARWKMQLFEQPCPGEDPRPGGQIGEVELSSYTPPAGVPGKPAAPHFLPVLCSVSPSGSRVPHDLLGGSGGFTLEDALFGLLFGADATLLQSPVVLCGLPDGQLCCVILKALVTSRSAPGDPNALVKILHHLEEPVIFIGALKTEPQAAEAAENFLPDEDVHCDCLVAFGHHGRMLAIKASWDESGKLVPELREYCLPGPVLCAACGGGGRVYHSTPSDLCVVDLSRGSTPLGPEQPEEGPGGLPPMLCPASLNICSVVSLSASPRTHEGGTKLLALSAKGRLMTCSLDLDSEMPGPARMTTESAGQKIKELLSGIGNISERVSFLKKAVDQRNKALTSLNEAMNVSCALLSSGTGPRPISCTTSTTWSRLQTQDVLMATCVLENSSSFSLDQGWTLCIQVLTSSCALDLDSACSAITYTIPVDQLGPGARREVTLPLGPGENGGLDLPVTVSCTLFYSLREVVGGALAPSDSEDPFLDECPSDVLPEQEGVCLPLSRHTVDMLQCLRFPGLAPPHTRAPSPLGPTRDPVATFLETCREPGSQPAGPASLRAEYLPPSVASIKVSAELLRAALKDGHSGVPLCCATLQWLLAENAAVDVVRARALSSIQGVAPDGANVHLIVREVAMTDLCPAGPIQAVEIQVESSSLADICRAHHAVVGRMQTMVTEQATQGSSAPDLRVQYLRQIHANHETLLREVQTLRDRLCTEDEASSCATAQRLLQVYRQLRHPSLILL
UniProt Q5W0V3: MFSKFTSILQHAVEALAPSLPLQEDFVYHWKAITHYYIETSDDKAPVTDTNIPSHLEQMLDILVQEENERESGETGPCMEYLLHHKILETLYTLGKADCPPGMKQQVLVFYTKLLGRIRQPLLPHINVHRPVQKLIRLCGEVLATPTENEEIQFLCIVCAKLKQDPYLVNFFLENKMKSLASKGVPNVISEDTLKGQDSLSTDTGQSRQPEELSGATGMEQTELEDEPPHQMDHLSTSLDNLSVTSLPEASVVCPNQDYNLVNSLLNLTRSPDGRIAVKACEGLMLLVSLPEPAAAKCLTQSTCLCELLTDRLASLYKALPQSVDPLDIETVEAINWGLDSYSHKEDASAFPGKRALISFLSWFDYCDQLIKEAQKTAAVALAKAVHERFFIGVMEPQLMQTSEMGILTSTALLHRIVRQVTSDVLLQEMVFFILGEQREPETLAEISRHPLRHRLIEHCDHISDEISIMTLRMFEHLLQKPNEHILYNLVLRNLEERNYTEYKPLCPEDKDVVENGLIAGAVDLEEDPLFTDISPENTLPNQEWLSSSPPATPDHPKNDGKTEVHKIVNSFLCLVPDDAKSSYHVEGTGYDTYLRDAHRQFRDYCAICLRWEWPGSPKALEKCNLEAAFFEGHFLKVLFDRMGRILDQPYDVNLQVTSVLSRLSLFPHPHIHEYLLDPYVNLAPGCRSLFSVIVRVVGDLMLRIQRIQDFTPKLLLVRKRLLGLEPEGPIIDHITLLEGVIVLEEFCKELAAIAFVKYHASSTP
UniProt Q13158: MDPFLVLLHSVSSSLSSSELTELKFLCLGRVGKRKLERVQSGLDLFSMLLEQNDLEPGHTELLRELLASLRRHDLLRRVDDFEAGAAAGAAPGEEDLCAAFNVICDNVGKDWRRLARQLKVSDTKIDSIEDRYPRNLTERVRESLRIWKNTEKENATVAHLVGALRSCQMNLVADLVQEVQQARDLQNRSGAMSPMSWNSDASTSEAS
UniProt Q96RQ1: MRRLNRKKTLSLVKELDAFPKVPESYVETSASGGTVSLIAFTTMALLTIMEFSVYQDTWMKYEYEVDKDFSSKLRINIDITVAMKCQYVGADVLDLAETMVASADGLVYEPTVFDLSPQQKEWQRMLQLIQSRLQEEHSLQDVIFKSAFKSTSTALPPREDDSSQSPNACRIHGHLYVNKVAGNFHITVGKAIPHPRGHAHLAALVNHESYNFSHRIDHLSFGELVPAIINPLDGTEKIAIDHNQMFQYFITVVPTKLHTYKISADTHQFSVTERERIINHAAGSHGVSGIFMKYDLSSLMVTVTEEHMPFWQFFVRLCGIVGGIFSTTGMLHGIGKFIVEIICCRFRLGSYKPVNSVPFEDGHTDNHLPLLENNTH
UniProt Q8IYI6: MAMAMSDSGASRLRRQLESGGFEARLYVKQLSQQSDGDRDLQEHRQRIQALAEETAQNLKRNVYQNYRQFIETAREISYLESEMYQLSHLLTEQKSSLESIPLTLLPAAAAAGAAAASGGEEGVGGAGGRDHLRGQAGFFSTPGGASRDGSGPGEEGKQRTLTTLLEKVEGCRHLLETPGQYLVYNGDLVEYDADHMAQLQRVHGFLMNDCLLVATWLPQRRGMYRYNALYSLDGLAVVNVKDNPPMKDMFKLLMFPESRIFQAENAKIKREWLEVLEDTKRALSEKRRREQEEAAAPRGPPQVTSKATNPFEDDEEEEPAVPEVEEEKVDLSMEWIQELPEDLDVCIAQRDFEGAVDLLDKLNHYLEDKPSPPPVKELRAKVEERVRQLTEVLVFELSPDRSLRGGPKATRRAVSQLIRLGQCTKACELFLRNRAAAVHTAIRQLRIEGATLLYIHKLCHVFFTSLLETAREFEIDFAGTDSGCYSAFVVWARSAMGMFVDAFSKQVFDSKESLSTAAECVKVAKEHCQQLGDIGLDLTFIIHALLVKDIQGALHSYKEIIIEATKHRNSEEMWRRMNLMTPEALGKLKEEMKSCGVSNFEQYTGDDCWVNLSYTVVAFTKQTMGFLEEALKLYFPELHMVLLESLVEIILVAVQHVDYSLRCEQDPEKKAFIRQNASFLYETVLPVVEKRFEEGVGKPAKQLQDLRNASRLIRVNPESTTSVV
UniProt Q13216, whole entry, looked up: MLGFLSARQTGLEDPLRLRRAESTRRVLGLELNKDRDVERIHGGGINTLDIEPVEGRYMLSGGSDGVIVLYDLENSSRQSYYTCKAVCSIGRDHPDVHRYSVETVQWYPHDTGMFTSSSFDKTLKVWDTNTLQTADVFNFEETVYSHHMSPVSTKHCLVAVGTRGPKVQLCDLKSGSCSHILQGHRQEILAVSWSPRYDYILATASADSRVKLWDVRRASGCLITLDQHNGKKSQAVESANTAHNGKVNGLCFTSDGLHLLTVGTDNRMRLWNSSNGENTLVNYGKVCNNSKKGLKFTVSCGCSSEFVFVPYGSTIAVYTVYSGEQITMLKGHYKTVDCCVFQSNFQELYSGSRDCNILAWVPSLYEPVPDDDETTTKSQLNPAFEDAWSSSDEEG
UniProt Q96HE7: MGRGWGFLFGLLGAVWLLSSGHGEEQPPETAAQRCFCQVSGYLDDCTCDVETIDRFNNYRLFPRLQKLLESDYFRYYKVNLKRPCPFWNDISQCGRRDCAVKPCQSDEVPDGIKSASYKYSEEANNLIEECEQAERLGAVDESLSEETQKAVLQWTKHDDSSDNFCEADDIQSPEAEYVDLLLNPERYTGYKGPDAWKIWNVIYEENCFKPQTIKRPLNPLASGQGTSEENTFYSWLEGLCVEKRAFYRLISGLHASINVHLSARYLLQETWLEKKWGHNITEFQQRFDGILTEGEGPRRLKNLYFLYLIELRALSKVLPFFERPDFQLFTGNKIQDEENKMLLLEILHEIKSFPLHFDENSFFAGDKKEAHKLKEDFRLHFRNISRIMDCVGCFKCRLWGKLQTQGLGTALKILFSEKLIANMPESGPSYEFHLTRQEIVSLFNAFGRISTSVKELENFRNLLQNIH
UniProt P07814: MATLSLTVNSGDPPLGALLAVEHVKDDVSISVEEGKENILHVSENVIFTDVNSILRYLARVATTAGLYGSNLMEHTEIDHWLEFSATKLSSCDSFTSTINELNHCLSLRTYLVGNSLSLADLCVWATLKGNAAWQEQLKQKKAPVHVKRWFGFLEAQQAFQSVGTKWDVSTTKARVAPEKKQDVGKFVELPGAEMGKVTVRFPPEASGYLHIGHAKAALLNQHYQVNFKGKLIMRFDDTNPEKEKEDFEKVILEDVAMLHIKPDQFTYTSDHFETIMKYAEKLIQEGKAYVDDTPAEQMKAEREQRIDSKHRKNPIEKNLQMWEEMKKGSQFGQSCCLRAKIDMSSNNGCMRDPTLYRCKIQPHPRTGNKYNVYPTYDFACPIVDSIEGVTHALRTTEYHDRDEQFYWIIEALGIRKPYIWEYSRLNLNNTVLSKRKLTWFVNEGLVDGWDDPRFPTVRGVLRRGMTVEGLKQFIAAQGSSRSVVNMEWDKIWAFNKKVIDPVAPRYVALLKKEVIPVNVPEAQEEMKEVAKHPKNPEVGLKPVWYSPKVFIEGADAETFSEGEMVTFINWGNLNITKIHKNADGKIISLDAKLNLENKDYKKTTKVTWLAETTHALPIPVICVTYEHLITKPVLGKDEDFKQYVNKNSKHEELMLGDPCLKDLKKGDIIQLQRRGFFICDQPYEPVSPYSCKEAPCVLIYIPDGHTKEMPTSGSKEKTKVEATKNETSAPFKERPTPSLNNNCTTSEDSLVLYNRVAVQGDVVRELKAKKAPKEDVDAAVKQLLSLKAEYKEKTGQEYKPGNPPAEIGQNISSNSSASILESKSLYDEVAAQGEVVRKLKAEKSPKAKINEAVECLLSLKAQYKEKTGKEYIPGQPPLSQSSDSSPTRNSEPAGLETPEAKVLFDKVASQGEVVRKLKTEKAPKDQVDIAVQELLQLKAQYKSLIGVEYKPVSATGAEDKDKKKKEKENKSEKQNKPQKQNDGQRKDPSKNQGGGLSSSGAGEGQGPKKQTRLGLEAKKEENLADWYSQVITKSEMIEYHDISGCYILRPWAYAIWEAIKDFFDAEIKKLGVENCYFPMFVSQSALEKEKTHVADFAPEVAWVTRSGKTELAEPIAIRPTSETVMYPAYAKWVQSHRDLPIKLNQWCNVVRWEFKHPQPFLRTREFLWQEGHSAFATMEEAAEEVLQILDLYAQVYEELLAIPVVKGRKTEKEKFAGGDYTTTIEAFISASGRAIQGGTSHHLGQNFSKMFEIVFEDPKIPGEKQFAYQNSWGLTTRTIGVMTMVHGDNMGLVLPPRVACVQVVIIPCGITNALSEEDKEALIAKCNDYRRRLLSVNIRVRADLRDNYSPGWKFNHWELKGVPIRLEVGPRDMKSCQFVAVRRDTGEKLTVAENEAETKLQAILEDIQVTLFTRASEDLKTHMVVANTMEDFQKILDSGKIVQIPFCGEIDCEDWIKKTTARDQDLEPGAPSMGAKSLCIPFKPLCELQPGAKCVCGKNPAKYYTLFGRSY
UniProt Q96B26, whole entry, looked up: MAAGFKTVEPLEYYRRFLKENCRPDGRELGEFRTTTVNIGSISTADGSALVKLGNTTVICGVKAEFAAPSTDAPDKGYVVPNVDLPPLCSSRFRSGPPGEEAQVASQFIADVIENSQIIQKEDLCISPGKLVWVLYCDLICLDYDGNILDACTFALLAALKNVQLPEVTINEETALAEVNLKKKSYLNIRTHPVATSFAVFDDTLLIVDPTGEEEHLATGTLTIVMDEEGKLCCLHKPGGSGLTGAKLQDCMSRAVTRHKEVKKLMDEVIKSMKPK
UniProt P11474: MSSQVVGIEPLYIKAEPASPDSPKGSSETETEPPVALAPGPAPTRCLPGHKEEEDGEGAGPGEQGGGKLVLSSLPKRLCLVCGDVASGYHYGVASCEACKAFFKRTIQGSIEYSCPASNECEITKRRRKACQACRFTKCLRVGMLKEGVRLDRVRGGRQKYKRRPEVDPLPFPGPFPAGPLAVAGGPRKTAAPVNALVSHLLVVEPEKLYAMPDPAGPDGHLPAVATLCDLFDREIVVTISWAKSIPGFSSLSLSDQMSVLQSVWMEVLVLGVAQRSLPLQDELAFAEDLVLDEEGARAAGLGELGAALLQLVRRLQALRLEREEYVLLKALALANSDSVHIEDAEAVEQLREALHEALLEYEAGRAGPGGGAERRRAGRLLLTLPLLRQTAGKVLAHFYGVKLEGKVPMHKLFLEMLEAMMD
UniProt Q9NWS6: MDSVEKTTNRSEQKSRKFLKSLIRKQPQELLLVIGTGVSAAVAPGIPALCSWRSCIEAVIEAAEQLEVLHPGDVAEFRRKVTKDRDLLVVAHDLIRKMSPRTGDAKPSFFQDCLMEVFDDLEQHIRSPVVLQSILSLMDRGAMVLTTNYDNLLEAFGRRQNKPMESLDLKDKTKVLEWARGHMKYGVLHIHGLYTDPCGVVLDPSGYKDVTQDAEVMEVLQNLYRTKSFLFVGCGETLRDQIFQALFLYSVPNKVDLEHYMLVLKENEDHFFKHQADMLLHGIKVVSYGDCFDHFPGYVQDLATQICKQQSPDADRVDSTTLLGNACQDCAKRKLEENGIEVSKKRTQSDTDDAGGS

Each target was assayed with CON(C)C(=O)N1N=C(c2cc(F)ccc2F)S[C@@]1(CCCN)c1ccccc1 [filanesib] (assay: log2 fold change, soluble protein after heating vs DMSO (PISA); higher = thermal stabilisation; K562 cells, 10 uM, 30 min; active = over 0.2 and 3.5 SD of the protein, either way, in both replicates (recomputed)).
In short: (§1)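 K562 cells (2×10^6 cells/mL) were treated with 10 μM compound for 30 min, and aliquots were heated for 3 min over 48°C-58°C. Pooled aliquots were extracted in PBS with 0.5% NP-40 at 4°C, and the supernatant after 21,000xg for 90 min was measured by TMTpro 16plex LC-MS/MS with channel sums equalised. Reported thermal stability, relative to control samples and from duplicates, is a log2 fold change.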

log2 fold change, inactive:
ERG28 (UniProt Q9UKR5) -0.004
ERO1B (UniProt Q86YB8) 0.043
FAAP100 (UniProt Q0VG06) -0.012
FAM160B1 (UniProt Q5W0V3) -0.145
ERAL1 (UniProt O75616) 0.049
EWSR1 isoform 5 (UniProt Q01844) 0.035
FADD (UniProt Q13158) -0.018
ERGIC2 (UniProt Q96RQ1) -0.144
EPS15L1 isoform 2 (UniProt Q9UBC2) -0.068
EXOC6 (UniProt Q8TAG9) 0.017
F2 (UniProt P00734) 0.243
EPS15L1 (UniProt M0QY01) -0.023
EXOC8 (UniProt Q8IYI6) -0.044
FAHD1 (UniProt Q6P587) -0.035
ERP29 (UniProt P30040) -0.017
ERCC8 (UniProt Q13216) -0.101
ERO1A (UniProt Q96HE7) 0.019
EXOSC3 (UniProt Q9NQT5) 0.036
FAM133B (UniProt Q5BKY9) 0.142
EPHA6 (UniProt Q9UF33) 0.396
ERCC6 (UniProt Q03468) -0.268
FAM162A (UniProt Q96A26) -0.04
FABP5 (UniProt Q01469) -0.044
EPRS (UniProt P07814) 0.423
FAM136A (UniProt Q96C01) -0.021
EPHX1 (UniProt P07099) -0.03
EPM2AIP1 (UniProt Q7L775) 0.004
EXOSC8 (UniProt Q96B26) 0.038
ESRRA (UniProt P11474) -0.028
EPCAM (UniProt P16422) 0.025
FAM118A (UniProt Q9NWS6) -0.15

What follows are targets tested with CO[C@H]1C[C@@H]2CC[C@@H](C)[C@@](O)(O2)C(=O)C(=O)N2CCCC[C@H]2C(=O)O[C@H]([C@H](C)C[C@@H]2CC[C@H](n3cnnn3)[C@H](OC)C2)CC(=O)[C@H](C)/C=C(\C)[C@@H](O)[C@@H](OC)C(=O)[C@H](C)C[C@H](C)/C=C/C=C/C=C/1C [zotarolimus] in the same assay as above.
In short: as §1

log2 fold change, inactive:
ERG28 (UniProt Q9UKR5) 0.142
ERO1B (UniProt Q86YB8) -0.004
FAAP100 (UniProt Q0VG06) -0.025
FAM160B1 (UniProt Q5W0V3) 0.004
ERAL1 (UniProt O75616) 0.16
EWSR1 isoform 5 (UniProt Q01844) -0.029
FADD (UniProt Q13158) 0.018
ERGIC2 (UniProt Q96RQ1) 0.001
EPS15L1 isoform 2 (UniProt Q9UBC2) -0.024
EXOC6 (UniProt Q8TAG9) 0.151
F2 (UniProt P00734) -0.128
EXOC8 (UniProt Q8IYI6) 0.056
FAHD1 (UniProt Q6P587) -0.079
ERP29 (UniProt P30040) 0
ERCC8 (UniProt Q13216) -0.186
ERO1A (UniProt Q96HE7) -0.001
EXOSC3 (UniProt Q9NQT5) 0.028
FAM133B (UniProt Q5BKY9) -0.007
EPHA6 (UniProt Q9UF33) -0.292
ERCC6 (UniProt Q03468) 0.102
FAM162A (UniProt Q96A26) -0.03
FABP5 (UniProt Q01469) 0.035
EPRS (UniProt P07814) 0.049
FAM136A (UniProt Q96C01) 0.011
EPHX1 (UniProt P07099) -0.051
EPM2AIP1 (UniProt Q7L775) 0.003
EXOSC8 (UniProt Q96B26) 0.004
ESRRA (UniProt P11474) 0.02
EPCAM (UniProt P16422) 0
FAM118A (UniProt Q9NWS6) 0.032

What follows are targets tested with COc1cc(C(=O)O)ccc1NC(=O)[C@@H]1N[C@@H](CC(C)(C)C)[C@](C#N)(c2ccc(Cl)cc2F)[C@H]1c1cccc(Cl)c1F [idasanutlin] in the same assay as above.
In short: as §1

log2 fold change, inactive:
ERG28 (UniProt Q9UKR5) 0.036
ERO1B (UniProt Q86YB8) 0.109
FAAP100 (UniProt Q0VG06) 0.055
FAM160B1 (UniProt Q5W0V3) -0.053
ERAL1 (UniProt O75616) 0.179
EWSR1 isoform 5 (UniProt Q01844) 0.076
FADD (UniProt Q13158) 0.042
ERGIC2 (UniProt Q96RQ1) -0.071
EPS15L1 isoform 2 (UniProt Q9UBC2) -0.015
EXOC6 (UniProt Q8TAG9) -0.058
F2 (UniProt P00734) 0.04
EXOC8 (UniProt Q8IYI6) -0.072
FAHD1 (UniProt Q6P587) -0.021
ERP29 (UniProt P30040) 0.088
ERCC8 (UniProt Q13216) 0.144
ERO1A (UniProt Q96HE7) 0.007
EXOSC3 (UniProt Q9NQT5) -0.065
FAM133B (UniProt Q5BKY9) 0.045
EPHA6 (UniProt Q9UF33) 0.206
ERCC6 (UniProt Q03468) -0.14
FAM162A (UniProt Q96A26) -0.04
FABP5 (UniProt Q01469) 0.013
EPRS (UniProt P07814) 0.189
FAM136A (UniProt Q96C01) -0.057
EPHX1 (UniProt P07099) -0.023
EPM2AIP1 (UniProt Q7L775) -0.048
EXOSC8 (UniProt Q96B26) 0.024
ESRRA (UniProt P11474) 0.077
EPCAM (UniProt P16422) -0.031
FAM118A (UniProt Q9NWS6) -0.323
